PubChem BioAssay AID1671195 | Yale University – 2021

Purpose: 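Regulators of LDL receptor activity judged by labelled LDL uptake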 (primary screen)
Cell system: human Huh7 hepatoma cells
Knock-down reagent: siRNA pool against human genes, 18 nM
Duration: about 2 to 2.5 days of knockdown, then 8 h LDL uptake
Challenge: DiI-labelled LDL at 30 µg/ml for 8 h, in lipoprotein-deficient serum medium
Read-out: 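Fluorescent LDL signal imaged in cells, scaled to the plate median, robust z-score for each replicate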
Reading the numbers: robust z-score: higher = more LDL uptake after knockdown
Active means: 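a gene counts as active if at least two replicate z-scores exceed ±2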
In all, the deposit lists about 22,000 reagents; this is a part drawn at random. In the full data, about 1,510 (6.9%) were called active. 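Active includes knockdowns raising or lowering LDL uptake; positive z-scores mean more uptake, negative mean less.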 A number with no mark means an inactive call.

| Gene | robust z-score, replicate 1 | robust z-score, replicate 2 | robust z-score, replicate 3 |
| --- | --- | --- | --- |
| RAB41 | 0.22 | -0.433 | -0.858 |
| TENT2 | -0.512 | 0.329 | 0.699 |
| LBR | 1.98 (active) | 1.9 | 2.4 |
| COL25A1 | 0.291 | 0.117 | 0.288 |
| PDP1 | -0.337 | -1.17 | -0.19 |
| TLCD4 | -0.496 | 0.192 | -0.458 |
| FZD1 | -2.04 | 4.26 | 1.57 |
| OR10W1 | -1.81 | -1.76 | -1.78 |
| TBX19 | 0.242 | 0.574 | 0.478 |
| TRPC6 | -0.786 | -0.489 | -0.531 |

The list goes on, starting with the last 3 of the part before.
| Gene | robust z-score, replicate 1 | robust z-score, replicate 2 | robust z-score, replicate 3 |
| --- | --- | --- | --- |
| OR10W1 | -1.81 | -1.76 | -1.78 |
| TBX19 | 0.242 | 0.574 | 0.478 |
| TRPC6 | -0.786 | -0.489 | -0.531 |
| PAPOLG | 3.87 (active) | 2.42 | 3.37 |
| LOC340549 (retired record) | 1.45 | 1.31 | 1.63 |
| GMNN | 1.16 | -0.203 | -2.07 |
| LINC00885 | -0.755 | -0.881 | -0.698 |
| OR1N1 | -1.33 | -1.7 | -1.9 |
| APEX1 | 2.44 | 1.16 | 1.25 |
| FAM221A | 1.09 | 1.62 | 1.66 |
| HOXD9 | -0.139 | 0.258 | 0.746 |
| NPL | 1.68 | 2.32 | 1.78 |
| ERGIC2 | -0.489 | 1.5 | 1.3 |
| TMEM52B | -0.578 | -0.659 | -1.52 |
| UBE2T | 0.398 | 0.216 | -0.412 |
| PAQR6 | -1.02 | -0.763 | -1.08 |
| INHA | -0.0371 | -0.949 | -1.16 |
| RPL7P33 | -0.4 | -0.407 | -0.598 |
| ARMCX2 | 2.24 (active) | 1.93 | 2.02 |
| IGFBPL1 | -0.28 | -0.697 | -0.682 |
| LOC388549 (retired record) | -0.193 | -0.269 | -0.3 |
